Measured values from the supplement of paper PMC4604168 (melanoma cell lines).
The other results are listed elsewhere or left out. Repeats are few or missing, and single values can be far off.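 Imaging used 1,536-well plates; nuclei positive for cleaved PARP by antibody were divided by total DNA-stained nuclei to yield the apoptosis fraction. Doses for screening kept most cells viable, and cell lines differ markedly in resting and induced cleaved-PARP levels.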

Tests used:
Test in all cases: cleaved PARP positive nuclei fraction relative to DMSO control; melanoma cells; higher = more apoptosis
Settings in all cases: library dose: low library concentration; 72 h
WM115 = system: WM115
WM1716 = system: WM1716
WM1745 = system: WM1745
WM3526 = system: WM3526
WM3619 = system: WM3619
WM451Lu = system: WM451Lu

| Structure (SMILES) | cleaved PARP positive nuclei fraction (WM115) [%] | cleaved PARP positive nuclei fraction (WM1716) [%] | cleaved PARP positive nuclei fraction (WM1745) [%] | cleaved PARP positive nuclei fraction (WM3526) [%] | cleaved PARP positive nuclei fraction (WM3619) [%] | cleaved PARP positive nuclei fraction (WM451Lu) [%] |
| --- | --- | --- | --- | --- | --- | --- |
| Cn1sc(=O)n(Cc2ccccc2)c1=O + CO[C@@H]1[C@H](N(C)C(=O)c2ccccc2)C[C@H]2O[C@]1(C)n1c3ccccc3c3c4c(c5c6ccccc6n2c5c31)C(=O)NC4 [Midostaurin] (first compound 0.4 µM, partner dose 0.08 µM) | 76.5 | 172 | 99.6 | 78.9 | 110 | 220 |
| Cn1sc(=O)n(Cc2ccccc2)c1=O + CS(=O)(=O)CCNCc1ccc(-c2ccc3ncnc(Nc4ccc(OCc5cccc(F)c5)c(Cl)c4)c3c2)o1 [lapatinib] (first compound 0.4 µM, partner dose 0.8 µM) | 144 | 35.1 | 95.1 | 75.9 | 116 | 90.2 |
| NC(=O)c1ccc(N(C(N)=O)c2c(F)cccc2F)nc1-c1ccc(F)cc1F + c1cc(-c2cnn3cc(-c4ccc(OCCN5CCCCC5)cc4)cnc23)ccn1 [Dorsomorphin] (first compound 0.4 µM, partner dose 0.4 µM) | 180 | 25 | 100 | 74.8 | 99.8 | 128 |
| NC1(c2ccc(-c3nc4ccn5c(=O)[nH]nc5c4cc3-c3ccccc3)cc2)CCC1 + CN1CCN(c2ccc3nc(-c4c(N)c5c(F)cccc5[nH]c4=O)[nH]c3c2)CC1 [Dovitinib] (first compound 0.4 µM, partner dose 0.1 µM) | 343 | 156 | 102 | 130 | 108 | 58.5 |
| CC(=O)O[C@@]12CO[C@@H]1C[C@H](O)[C@@]1(C)C(=O)[C@H](O)C3=C(C)[C@@H](OC(=O)[C@H](O)[C@@H](NC(=O)OC(C)(C)C)c4ccccc4)C[C@@](O)([C@@H](OC(=O)c4ccccc4)[C@H]21)C3(C)C [Docetaxel] + O=C(Nc1cccc(Cl)c1)Nc1ncc(CCNc2ncnc3ccsc23)s1 [SNS314] (first compound 0.0001 µM, partner dose 0.0008 µM) | 138 | 421 | 208 | 120 | 141 | 350 |
| CC(=O)O[C@@]12CO[C@@H]1C[C@H](O)[C@@]1(C)C(=O)[C@H](O)C3=C(C)[C@@H](OC(=O)[C@H](O)[C@@H](NC(=O)OC(C)(C)C)c4ccccc4)C[C@@](O)([C@@H](OC(=O)c4ccccc4)[C@H]21)C3(C)C [Docetaxel] + O=c1cc(-c2cccc3c2Sc2ccccc2S3)oc(N2CCOCC2)c1 [KU55933] (first compound 0.0001 µM, partner dose 1 µM) | 701 | 142 | 166 | 431 | 153 | 123 |
| NC1(c2ccc(-c3nc4ccn5c(=O)[nH]nc5c4cc3-c3ccccc3)cc2)CCC1 + O=S(=O)(c1ccccc1)N(CC(F)(F)F)c1ccc(C(O)(C(F)(F)F)C(F)(F)F)cc1 [T0901317] (first compound 0.4 µM, partner dose 1.4 µM) | 179 | 31 | 98.1 | 526 | 107 | 27.3 |
| CN(c1ncccc1CNc1nc(Nc2ccc3c(c2)CC(=O)N3)ncc1C(F)(F)F)S(C)(=O)=O + Oc1nc(-c2ccc(C(F)(F)F)cc2)nc2c1CSCC2 [XAV939] (first compound 0.08 µM, partner dose 2 µM) | 196 | 431 | 120 | 95.6 | 91.7 | 92.9 |
| CC(=O)O[C@@]12CO[C@@H]1C[C@H](O)[C@@]1(C)C(=O)[C@H](O)C3=C(C)[C@@H](OC(=O)[C@H](O)[C@@H](NC(=O)OC(C)(C)C)c4ccccc4)C[C@@](O)([C@@H](OC(=O)c4ccccc4)[C@H]21)C3(C)C [Docetaxel] + CC(C)C[C@H](NC(=O)[C@H](Cc1ccccc1)NC(=O)c1cnccn1)B(O)O [Bortezomib] (first compound 0.0001 µM, partner dose 0.001 µM) | 271 | 110 | 194 | 80.4 | 127 | 157 |
| CCCCCCCCc1ccc(CCC(N)(CO)CO)cc1 [fingolimod] + Nc1cccc2c1CN(C1CCC(=O)NC1=O)C2=O [lenalidomide] (first compound 2 µM, partner dose 1 µM) | 47.6 | 89.9 | 112 | 87 | 122 | 85.4 |
| CCCCCCCCc1ccc(CCC(N)(CO)CO)cc1 [fingolimod] + N#Cc1c(O)c2c(-c3ccc(-c4ccccc4O)cc3)csc2[nH]c1=O [A769662] (first compound 2 µM, partner dose 2 µM) | 236 | 78.9 | 135 | 86.4 | 143 | 72.3 |
| CCCCCCCCc1ccc(CCC(N)(CO)CO)cc1 [fingolimod] + Nc1ncn([C@H]2C[C@H](O)[C@@H](CO)O2)c(=O)n1 [decitabine] (first compound 2 µM, partner dose 0.1 µM) | 188 | 57.3 | 119 | 54.7 | 112 | 109 |
| CN(c1ncccc1CNc1nc(Nc2ccc3c(c2)CC(=O)N3)ncc1C(F)(F)F)S(C)(=O)=O + COc1ccc(COc2ccc(Cc3cnc(N)nc3N)cc2OC)cc1 [GW2580] (first compound 0.08 µM, partner dose 1 µM) | 69.8 | 86.4 | 99.7 | 71.1 | 113 | 87.7 |
| CCN(CC)CCNC(=O)c1c(C)[nH]c(/C=C2\C(=O)Nc3ccc(F)cc32)c1C [sunitinib] + Cc1cc(N2CCOCC2)cc2[nH]c(-c3c(NC[C@@H](O)c4cccc(Cl)c4)cc[nH]c3=O)nc12 [BMS536924] (first compound 0.4 µM, partner dose 0.2 µM) | 48.7 | 85.2 | 145 | 154 | 104 | 171 |
| C[C@]1(O)C[C@@H](c2nc(-c3ccc4ccc(-c5ccccc5)nc4c3)c3c(N)nccn32)C1 + NC1(c2ccc(-c3nc4ccn5c(=O)[nH]nc5c4cc3-c3ccccc3)cc2)CCC1 [MK2206] (first compound 0.4 µM, partner dose 0.4 µM) | 140 | 68.1 | 104 | 57.6 | 94.3 | 124 |
| CS(=O)(=O)c1ccc(C(=O)Nc2ccc(Cl)c(-c3ccccn3)c2)c(Cl)c1 [vismodegib] + Oc1cc(-c2nc(-c3ccccc3)[nH]c2-c2ccncc2)ccc1Cl [L779450] (first compound 1 µM, partner dose 0.2 µM) | 66.3 | 121 | 104 | 23.1 | 91.3 | 69.9 |
| CS(=O)(=O)c1ccc(C(=O)Nc2ccc(Cl)c(-c3ccccn3)c2)c(Cl)c1 [vismodegib] + CO[C@H]1C[C@@H]2CC[C@@H](C)[C@@](O)(O2)C(=O)C(=O)N2CCCC[C@H]2C(=O)O[C@H]([C@H](C)C[C@@H]2CC[C@@H](OCCO)[C@H](OC)C2)CC(=O)[C@H](C)/C=C(\C)[C@@H](O)[C@@H](OC)C(=O)[C@H](C)C[C@H](C)/C=C/C=C/C=C/1C [everolimus] (first compound 1 µM, partner dose 0.02 µM) | 135 | 283 | 103 | 120 | 114 | 383 |
| NC1(c2ccc(-c3nc4ccn5c(=O)[nH]nc5c4cc3-c3ccccc3)cc2)CCC1 + CO[C@@H]1[C@H](N(C)C(=O)c2ccccc2)C[C@H]2O[C@]1(C)n1c3ccccc3c3c4c(c5c6ccccc6n2c5c31)C(=O)NC4 [Midostaurin] (first compound 0.4 µM, partner dose 0.08 µM) | 359 | 249 | 168 | 107 | 109 | 83.5 |
| CC(=O)O[C@@]12CO[C@@H]1C[C@H](O)[C@@]1(C)C(=O)[C@H](O)C3=C(C)[C@@H](OC(=O)[C@H](O)[C@@H](NC(=O)OC(C)(C)C)c4ccccc4)C[C@@](O)([C@@H](OC(=O)c4ccccc4)[C@H]21)C3(C)C [Docetaxel] + C[C@@H](Oc1cc(-c2cnn(C3CCNCC3)c2)cnc1N)c1c(Cl)ccc(F)c1Cl [Crizotinib] (first compound 0.0001 µM, partner dose 0.2 µM) | 328 | 152 | 141 | 60 | 148 | 63.1 |
| CC1(C)CCC(c2ccc(Cl)cc2)=C(CN2CCN(c3ccc(C(=O)NS(=O)(=O)c4ccc(N[C@H](CCN5CCOCC5)CSc5ccccc5)c(S(=O)(=O)C(F)(F)F)c4)cc3)CC2)C1 + CO[C@@H]1[C@H](N(C)C(=O)c2ccccc2)C[C@H]2O[C@]1(C)n1c3ccccc3c3c4c(c5c6ccccc6n2c5c31)C(=O)NC4 [Midostaurin] (first compound 0.4 µM, partner dose 0.08 µM) | 83.9 | 822 | 718 | 67.4 | 108 | 78.8 |
| C[C@@H](N)c1ccc(C(=O)Nc2ccnc3[nH]ccc23)cc1 + Cc1nc(Nc2ncc(C(=O)Nc3c(C)cccc3Cl)s2)cc(N2CCN(CCO)CC2)n1 [dasatanib] (first compound 0.4 µM, partner dose 0.004 µM) | 81.3 | 158 | 202 | 260 | 115 | 51.7 |
| C[C@@H](N)c1ccc(C(=O)Nc2ccnc3[nH]ccc23)cc1 + O=C(O)C(=O)Nc1sc2c(c1C(=O)O)CCNC2 [TCS401] (first compound 0.4 µM, partner dose 1.66667 µM) | 48.7 | 54.4 | 112 | 76.1 | 93.2 | 41.8 |
| NC(=O)c1ccc(N(C(N)=O)c2c(F)cccc2F)nc1-c1ccc(F)cc1F + Cn1nnc2c(C(N)=O)ncn2c1=O [temozolomide] (first compound 0.4 µM, partner dose 2 µM) | 144 | 192 | 91.4 | 24.7 | 147 | 44.1 |
| CCN(CC)CCNC(=O)c1c(C)[nH]c(/C=C2\C(=O)Nc3ccc(F)cc32)c1C [sunitinib] + C=C(c1ccc(C(=O)O)cc1)c1cc2c(cc1C)C(C)(C)CCC2(C)C [Bexarotene] (first compound 0.4 µM, partner dose 2 µM) | 111 | 105 | 114 | 50.1 | 65.9 | 370 |

An excerpt from above, limited to cleaved PARP positive nuclei fraction (WM115) [%].
Structure (SMILES) | cleaved PARP positive nuclei fraction (WM115) [%]
CCCCCCCCc1ccc(CCC(N)(CO)CO)cc1 [fingolimod] + N#Cc1c(O)c2c(-c3ccc(-c4ccccc4O)cc3)csc2[nH]c1=O [A769662] (first compound 2 µM, partner dose 2 µM) | 236
CCCCCCCCc1ccc(CCC(N)(CO)CO)cc1 [fingolimod] + Nc1ncn([C@H]2C[C@H](O)[C@@H](CO)O2)c(=O)n1 [decitabine] (first compound 2 µM, partner dose 0.1 µM) | 188
